The source of these data is the supplement of paper PMC7125110.

First the molecules themselves.
B1: glmS ribozyme (parent)
chain: AUAAAAGCGCCAGAACUACAGAAAUGUAGUUGACGAGGAGGAGGUUUAUCGAAUUUUCGGCGGAUGCCUCCAAA

± gives the standard error. Many entries were measured with a wide error. Bounds are passed on as bounds.

The variants in one data set derive from B1. Briefly: kcat; higher = faster cleavage; RNA array. Conditions: with glucosamine-6-phosphate. A digest of the protocol: (§1)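 kcat and KM were obtained from weighted Michaelis–Menten fits across concentrations of kobs values. Those came from one- or two-exponential decay fits to per-tile medians normalised to baseline and to non-cleaving reference variants. The variants were barcoded ribozymes transcribed in situ by E. coli RNA polymerase on sequenced MiSeq chips and tracked through a hybridised Cy3 probe at 37 °C, with 40 μM to 10 mM glucosamine-6-phosphate in HEPES/KCl/Mg(OAc)2 buffer flowed in.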
Take AUAAAAGCGCCAGAACUACAGAAAUGUAAUUGACGAGGAGGAGGUUUAUCGAACUUUCGGCGGAUGCCUCCAAA: the turnover number (kcat) worked out at 0.00174 ± 0.0011 s⁻¹. Still for that read-out and setting: as for AUAAAAGCGCCAGAACUACAGAAAUGUACUCGACGAGGAGGAGGUUUAUCGAAUUUUCGGCGGAUGCCUACAAA, the figure is 5.35e-05 ± 4.1e-05 s⁻¹; as for AUAAAAGCGCCAGAAUUACAGAAAUGUAGAUGACGAGGAGGAGGUUUAUCGAAUUUUCGGCGGAUGCCUCCAAA, 0.003 ± 0.00083 s⁻¹; as for AUAAAAGCGCCAGAAUUACAGAAAUGUAGUUGACGAGGAGGAGGUUUAUCGAUUUUUCGGCGGAUGCCUCCAAA, 0.0128 ± 0.011 s⁻¹. On to AUAAAAGCGCCAGAACUACAUAAAUGUAGUAGACGAGGAGGAGGUUUAUCGAAUUUUCGGCGGAUGCCUCCAAA, for which the catalytic constant (kcat) turned out to be 0.0242 ± 0.014 s⁻¹. Still for that read-out and setting: the value for AUAAAAGCGCCAGAAUUACAGAAAUGUAGUUGACGAGGAGGAGGUUGAUCGAAUUUUCGGCGGAUGCCUCCAAA was 0.0015 ± 0.00083 s⁻¹. In the case of AUAAAAGCGCCAGAAUUACAGAAAUGUAGUUGACGAGGAAGAGGUUUAUCGAAUUUUCGGCGGAUGCCUCCAAA, the turnover number (kcat) was found to be 0.00615 ± 0.0033 s⁻¹. Consider AUAAAAGCGCCAGAACUACAGAAAUGUACUUCACGAGGAGGAGGUUUAUCGAAUUUUCGGCGGAUGCCUCCAAA, for which the kcat came out at 0.000391 ± 0.0002 s⁻¹.

For AUAAAAGCGCCAGAAUUACAGAAAUGUAGUUGACGAGGAGGAGGUUUAUCGAAAUUUCGGCGGAUGCCUCCAAA, the kcat amounted to 0.00549 ± 0.0031 s⁻¹.

As to AUAAAAGCGCCAGAACUACAGAAAUGUAAUUGACGAUGAGGAGGUUUAUCGAAUUUUCGGCGGAUGCCUCCAAA, the kcat was less than 1e-05 s⁻¹. As to AUAAAAGCGCCAGAACUAAAGAAAUGUAGUUGACGAGGAGGAGGUUUAUGGAAUUUUCGGCGGAUGCCUCCAAA, the catalytic constant (kcat) was found to be 5.8e-05 ± 4.1e-05 s⁻¹. For AUAAAAGCGCCAGAACUACAGAAAUGUACUUGACGAGGAGGAGGUUUAUCGAGUUUUCGGCGGAUGCAUCCAAA, the catalytic constant (kcat) came to 6.29e-05 ± 4.1e-05 s⁻¹. AUAAAAGCGCCAGAACUACAGAAAUGUAAUUGUCGAGGAGGAGGUUUAUCGAAUUUUCGGCGGAUGCCUCCAAA: the kcat is 0.000174 ± 0.00013 s⁻¹.

With AUAAAAGCGCCAGAACUACAGAAAUGUAAUUGACGAGGAGGAGGUUUAUCGAAUUUUCGGCGGAUGCCGCCAAA, the turnover number (kcat) is 2.3e-05 ± 1.2e-05 s⁻¹. Still for that read-out and setting: as for AUAAAAGCGCCAGAAUUACAGAAAUGUAGUUGACGAGGAGGAUGUUUAUCGAAUUUUCGGCGGAUGCCUCCAAA, the figure is 4.2e-05 ± 1.9e-07 s⁻¹; as for AUAAAAGCGCCAGAAUUACAGAAAUGUACUUGACGAGGAGGAGGUUUAUCGAAUUUUCGGCGGAUGCCUCCAAA, 0.00862 ± 0.0062 s⁻¹. On the same count and under the same terms, the value for AUAAAAGCGCCAGAACUACAGAAAUGUAAUUGACGAGGAGGAGGUUUAUCGAAUUUUCGGCGGAUGCCUCUAAA was 0.00647 ± 0.0063 s⁻¹; that for AUAAAAGCGCCAGAACUACAGAAAUGUACGUGACGAGGAGGAGGUUUAUCGAAUUUUCGGCGGAUGCCUCCAAA was 0.00361 ± 0.0014 s⁻¹.

Take AUAAAAGCGCCAGAACUACAGAAAUGUACUUGACGAGGAGGAGGUUUAUGGAAUUUUCGGCGGAUGCCUCCAAA: the catalytic constant (kcat) is 5.29e-05 ± 3.5e-05 s⁻¹. AUAAAAGCGCCAGAACUACAGAAAUGUACUUGACGAGGAGGAGGAUUAUCGAAUUUUCGGCGGAUGCCUCCAAA: the kcat turned out to be 0.000965 ± 0.0006 s⁻¹. For the variant AUAAAAGCGCCAGAACUACAUAAAUGUAGUUGACGAGGAGGAGGCUUAUCGAAUUUUCGGCGGAUGCUUCCAAA, the kcat came to 0.000502 ± 0.00032 s⁻¹. Regarding AUAAAAGCGCCAGAACUACAGAAAUGUAAUUGACGAGGAGGAGGUUUAUGGAAUUUUCGGCGGAUGCCUCCAAA, the kcat stood at 3.63e-05 ± 2.4e-05 s⁻¹.

The variants in a further data set derive from B1. Nature of the data set: KM; higher = weaker cofactor use; RNA array. Conditions: with glucosamine-6-phosphate. A digest of the protocol: as §1
For AUAAAAGCGCCAGAACUACAGAAAUGUAAUUGACGAGGAGGAGGUUUAUCGAACUUUCGGCGGAUGCCUCCAAA, the Michaelis-Menten constant (KM) stood at 692 ± 590 µM.

Consider AUAAAAGCGCCAGAAUUACAGAAAUGUAGAUGACGAGGAGGAGGUUUAUCGAAUUUUCGGCGGAUGCCUCCAAA, for which the Michaelis constant (KM) turned out to be 2310 ± 910 µM. The same measure, in the same setting: as for AUAAAAGCGCCAGAACUACAUAAAUGUAGUAGACGAGGAGGAGGUUUAUCGAAUUUUCGGCGGAUGCCUCCAAA, the figure is 2580 ± 1800 µM.

Turning to AUAAAAGCGCCAGAAUUACAGAAAUGUAGUUGACGAGGAAGAGGUUUAUCGAAUUUUCGGCGGAUGCCUCCAAA, the KM came out at 1880 ± 1300 µM.

For the variant AUAAAAGCGCCAGAACUACAGAAAUGUACUUCACGAGGAGGAGGUUUAUCGAAUUUUCGGCGGAUGCCUCCAAA, the Michaelis-Menten constant (KM) is 31100 ± 20000 µM. Same read-out and setting: the value for AUAAAAGCGCCAGAAUUACAGAAAUGUAGUUGACGAGGAGGAGGUUUAUCGAAAUUUCGGCGGAUGCCUCCAAA was 234 ± 210 µM. Take AUAAAAGCGCCAGAACUACAGAAAUGUAAUUGUCGAGGAGGAGGUUUAUCGAAUUUUCGGCGGAUGCCUCCAAA: the KM stood at 47800 ± 44000 µM. As for AUAAAAGCGCCAGAAUUACAGAAAUGUAGUUGACGAGGAGGAUGUUUAUCGAAUUUUCGGCGGAUGCCUCCAAA, the Michaelis-Menten constant (KM) came to 1250 ± 27 µM. On to AUAAAAGCGCCAGAAUUACAGAAAUGUACUUGACGAGGAGGAGGUUUAUCGAAUUUUCGGCGGAUGCCUCCAAA, for which the KM is 1670 ± 1600 µM. Consider AUAAAAGCGCCAGAACUACAGAAAUGUACGUGACGAGGAGGAGGUUUAUCGAAUUUUCGGCGGAUGCCUCCAAA, for which the Michaelis-Menten constant (KM) stood at 1710 ± 940 µM.

Another data set covers variants of B1. Briefly: self-cleavage kobs at 10000 uM GlcN6P; higher = faster cleavage; RNA array. The conditions noted are these: with glucosamine-6-phosphate. A digest of the protocol: as §1
For the variant AUAAAAGCGCCAGAACUACAGAAAUGUAAUUGACGAGGAGGAGGUUUAUCGAACUUUCGGCGGAUGCCUCCAAA, the “self-cleavage kobs at 10000 uM GlcN6P” value was determined as 0.00636 ± 0.0034 s⁻¹.

Variants of B1 are the subject of another data set. Nature of the data set: self-cleavage kobs at 160 uM GlcN6P; higher = faster cleavage; RNA array. The conditions noted are these: with glucosamine-6-phosphate. A digest of the protocol: as §1
As to AUAAAAGCGCCAGAACUACAGAAAUGUACUUGACGAGGAGGAGGUUUAUCGAGUUUUCGGCGGAUGCAUCCAAA, the “self-cleavage kobs at 160 uM GlcN6P” value was determined as 0.000662 ± 0.00034 s⁻¹.

Turning to AUAAAAGCGCCAGAACUACAGAAAUGUAAUUGACGAGGAGGAGGUUUAUCGAAUUUUCGGCGGAUGCCGCCAAA, the “self-cleavage kobs at 160 uM GlcN6P” value was determined as 5.03e-05 ± 3.4e-05 s⁻¹.

The next data set covers variants of B1. Nature of the data set: self-cleavage kobs at 640 uM GlcN6P; higher = faster cleavage; RNA array. Conditions: with glucosamine-6-phosphate. A digest of the protocol:
as §1
As for AUAAAAGCGCCAGAACUACAGAAAUGUAAUUGACGAGGAGGAGGUUUAUCGAAUUUUCGGCGGAUGCCGCCAAA, the “self-cleavage kobs at 640 uM GlcN6P” value is 3.99e-05 ± 2.9e-05 s⁻¹.

Another data set covers variants of B1. Briefly: self-cleavage kobs at 40 uM GlcN6P; higher = faster cleavage; RNA array. Conditions: with glucosamine-6-phosphate. A digest of the protocol:
as §1
AUAAAAGCGCCAGAACUACAUAAAUGUAGUUGACGAGGAGGAGGCUUAUCGAAUUUUCGGCGGAUGCUUCCAAA: the “self-cleavage kobs at 40 uM GlcN6P” value came out at 1.68e-05 ± 1.6e-05 s⁻¹.
